Results published in PMC12041854, “CARM1/PRMT4 facilitates XPF–ERCC1 heterodimer assembly and maintains nucleotide excision repair activity” (Nucleic Acids Research, 2025).
Results are given in words; binding and its absence hold for the method and conditions named. Binding seen in cells or lysates may run through a third protein. Some results given as binding are weak or reduced against the parent protein; the word gives no strength. For some assays here: Tags and fused reporters may be left off the sequences shown.

T1: GST-CARM1 (UniProt Q86X55)
T1 sequence: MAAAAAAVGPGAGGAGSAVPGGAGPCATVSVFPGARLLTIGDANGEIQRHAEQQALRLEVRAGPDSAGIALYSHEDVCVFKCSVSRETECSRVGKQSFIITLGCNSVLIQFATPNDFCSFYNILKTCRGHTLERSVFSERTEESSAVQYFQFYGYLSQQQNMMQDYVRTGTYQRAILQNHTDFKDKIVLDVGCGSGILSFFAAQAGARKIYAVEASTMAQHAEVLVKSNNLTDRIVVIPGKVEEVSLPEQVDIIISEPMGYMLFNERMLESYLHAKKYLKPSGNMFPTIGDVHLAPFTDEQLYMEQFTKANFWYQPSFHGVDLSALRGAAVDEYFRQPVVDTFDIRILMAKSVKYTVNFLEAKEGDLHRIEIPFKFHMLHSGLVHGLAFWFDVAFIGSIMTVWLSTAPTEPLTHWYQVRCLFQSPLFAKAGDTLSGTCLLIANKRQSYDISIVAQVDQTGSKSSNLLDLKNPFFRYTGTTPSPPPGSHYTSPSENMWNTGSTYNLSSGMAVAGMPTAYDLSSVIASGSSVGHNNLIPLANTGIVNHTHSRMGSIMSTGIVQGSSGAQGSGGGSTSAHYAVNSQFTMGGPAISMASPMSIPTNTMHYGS

T2: CARM1-FLAG-WT (UniProt Q86X55)
T2 sequence: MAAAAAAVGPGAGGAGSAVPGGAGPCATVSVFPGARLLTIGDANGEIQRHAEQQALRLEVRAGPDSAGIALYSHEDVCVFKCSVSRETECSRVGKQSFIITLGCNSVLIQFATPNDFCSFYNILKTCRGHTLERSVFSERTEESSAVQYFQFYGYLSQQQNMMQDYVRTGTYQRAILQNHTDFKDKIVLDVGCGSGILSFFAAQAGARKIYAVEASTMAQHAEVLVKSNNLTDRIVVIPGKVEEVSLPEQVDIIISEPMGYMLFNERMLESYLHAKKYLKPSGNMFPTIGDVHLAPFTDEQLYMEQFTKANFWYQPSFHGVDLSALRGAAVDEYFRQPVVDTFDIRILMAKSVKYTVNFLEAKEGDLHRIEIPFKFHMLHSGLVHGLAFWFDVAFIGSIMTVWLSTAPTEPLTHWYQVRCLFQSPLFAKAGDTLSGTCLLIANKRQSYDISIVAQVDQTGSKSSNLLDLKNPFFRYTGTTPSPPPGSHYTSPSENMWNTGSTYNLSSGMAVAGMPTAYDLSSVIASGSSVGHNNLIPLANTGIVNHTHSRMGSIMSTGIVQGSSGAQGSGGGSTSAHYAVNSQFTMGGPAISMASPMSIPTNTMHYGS

T3: METTL23 (UniProt Q86XA0)
T3 sequence: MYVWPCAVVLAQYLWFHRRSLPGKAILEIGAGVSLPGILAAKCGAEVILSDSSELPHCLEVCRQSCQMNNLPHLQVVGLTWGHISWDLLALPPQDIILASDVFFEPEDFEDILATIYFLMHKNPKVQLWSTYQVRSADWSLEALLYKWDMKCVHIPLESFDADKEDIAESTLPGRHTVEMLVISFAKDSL

T4: endogenous CARM1 (human (endogenous in HeLa and HEK293)) (UniProt Q86X55)
T4 sequence: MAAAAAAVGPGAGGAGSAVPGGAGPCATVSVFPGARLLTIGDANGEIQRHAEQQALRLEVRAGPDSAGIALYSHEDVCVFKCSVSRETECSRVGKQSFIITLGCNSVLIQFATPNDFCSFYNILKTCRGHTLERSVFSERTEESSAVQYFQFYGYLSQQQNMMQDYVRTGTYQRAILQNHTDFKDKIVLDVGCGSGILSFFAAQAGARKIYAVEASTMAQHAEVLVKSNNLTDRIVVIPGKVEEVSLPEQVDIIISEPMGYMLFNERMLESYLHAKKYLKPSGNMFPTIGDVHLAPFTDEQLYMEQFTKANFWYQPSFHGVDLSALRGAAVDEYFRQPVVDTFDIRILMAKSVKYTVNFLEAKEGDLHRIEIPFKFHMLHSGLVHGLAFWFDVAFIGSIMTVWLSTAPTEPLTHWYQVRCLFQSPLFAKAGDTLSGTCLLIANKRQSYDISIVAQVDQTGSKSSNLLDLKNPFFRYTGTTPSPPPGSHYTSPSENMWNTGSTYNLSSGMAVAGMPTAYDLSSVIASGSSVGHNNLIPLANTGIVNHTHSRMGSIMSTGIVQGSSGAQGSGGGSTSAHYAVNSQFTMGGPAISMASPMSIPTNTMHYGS


Assays:
GST-CARM1 = target: T1, GST-CARM1; assay: pull-down; lysate of HEK293 overexpressing XPF WT-Myc and ERCC1 mixed with purified GST-CARM1; MagneGST glutathione particles; washed three times with His-Lysis buffer; western blot; only the target purified
CARM1-FLAG-WT = target: T2, CARM1-FLAG-WT; assay: co-IP; XPF-Myc, ERCC1 and CARM1-FLAG co-expressed in HEK293; IP with anti-FLAG or anti-Myc antibody, protein G agarose, western blot; 25 mM Tris-HCl pH 7.5, 0.5% NP-40, 20 mM NaCl, 2 mM MgCl2
METTL23 = target: T3, METTL23; assay: co-IP; METTL23 overexpressed in HEK293, endogenous XPF; IP-western blotting
[1] = target: T4, endogenous CARM1 (human (endogenous in HeLa and HEK293)); assay: co-IP; DOX-induced XPF-Myc in HeLa cells, or endogenous XPF in HEK293 cells, with endogenous CARM1

binding (GST-CARM1) | binding (CARM1-FLAG-WT) | binding (METTL23) | binding [1] | Binder
binds | binds | – | – | XPF WT-Myc (protein, UniProt Q92889 1-916) MESGQPARRIAMAPLLEYERQLVLELLDTDGLVVCARGLGADRLLYHFLQLHCHPACLVLVLNTQPAEEEYFINQLKIEGVEHLPRRVTNEITSNSRYEVYTQGGVIFATSRILVVDFLTDRIPSDLITGILVYRAHRIIESCQEAFILRLFRQKNKRGFIKAFTDNAVAFDTGFCHVERVMRNLFVRKLYLWPRFHVAVNSFLEQHKPEVVEIHVSMTPTMLAIQTAILDILNACLKELKCHNPSLEVEDLSLENAIGKPFDKTIRHYLDPLWHQLGAKTKSLVQDLKILRTLLQYLSQYDCVTFLNLLESLRATEKAFGQNSGWLFLDSSTSMFINARARVYHLPDAKMSKKEKISEKMEIKEGEETKKELVLESNPKWEALTEVLKEIEAENKESEALGGPGQVLICASDDRTCSQLRDYITLGAEAFLLRLYRKTFEKDSKAEEVWMKFRKEDSSKRIRKSHKRPKDPQNKERASTKERTLKKKKRKLTLTQMVGKPEELEEEGDVEEGYRREISSSPESCPEEIKHEEFDVNLSSDAAFGILKEPLTIIHPLLGCSDPYALTRVLHEVEPRYVVLYDAELTFVRQLEIYRASRPGKPLRVYFLIYGGSTEEQRYLTALRKEKEAFEKLIREKASMVVPEEREGRDETNLDLVRGTASADVSTDTRKAGGQEQNGTQQSIVVDMREFRSELPSLIHRRGIDIEPVTLEVGDYILTPEMCVERKSISDLIGSLNNGRLYSQCISMSRYYKRPVLLIEFDPSKPFSLTSRGALFQEISSNDISSKLTLLTLHFPRLRILWCPSPHATAELFEELKQSKPQPDAATALAITADSETLPESEKYNPGPQDFLLKMPGVNAKNCRSLMHHVKNIAELAALSQDELTSILGNAANAKQLYDFIHTSFAEVVSKGKGKK
– | – | binds | binds | endogenous XPF (protein, UniProt Q92889 1-916) MESGQPARRIAMAPLLEYERQLVLELLDTDGLVVCARGLGADRLLYHFLQLHCHPACLVLVLNTQPAEEEYFINQLKIEGVEHLPRRVTNEITSNSRYEVYTQGGVIFATSRILVVDFLTDRIPSDLITGILVYRAHRIIESCQEAFILRLFRQKNKRGFIKAFTDNAVAFDTGFCHVERVMRNLFVRKLYLWPRFHVAVNSFLEQHKPEVVEIHVSMTPTMLAIQTAILDILNACLKELKCHNPSLEVEDLSLENAIGKPFDKTIRHYLDPLWHQLGAKTKSLVQDLKILRTLLQYLSQYDCVTFLNLLESLRATEKAFGQNSGWLFLDSSTSMFINARARVYHLPDAKMSKKEKISEKMEIKEGEETKKELVLESNPKWEALTEVLKEIEAENKESEALGGPGQVLICASDDRTCSQLRDYITLGAEAFLLRLYRKTFEKDSKAEEVWMKFRKEDSSKRIRKSHKRPKDPQNKERASTKERTLKKKKRKLTLTQMVGKPEELEEEGDVEEGYRREISSSPESCPEEIKHEEFDVNLSSDAAFGILKEPLTIIHPLLGCSDPYALTRVLHEVEPRYVVLYDAELTFVRQLEIYRASRPGKPLRVYFLIYGGSTEEQRYLTALRKEKEAFEKLIREKASMVVPEEREGRDETNLDLVRGTASADVSTDTRKAGGQEQNGTQQSIVVDMREFRSELPSLIHRRGIDIEPVTLEVGDYILTPEMCVERKSISDLIGSLNNGRLYSQCISMSRYYKRPVLLIEFDPSKPFSLTSRGALFQEISSNDISSKLTLLTLHFPRLRILWCPSPHATAELFEELKQSKPQPDAATALAITADSETLPESEKYNPGPQDFLLKMPGVNAKNCRSLMHHVKNIAELAALSQDELTSILGNAANAKQLYDFIHTSFAEVVSKGKGKK
– | – | – | binds | XPF-Myc induced by DOX in HeLa cells (protein, UniProt Q92889 1-916) MESGQPARRIAMAPLLEYERQLVLELLDTDGLVVCARGLGADRLLYHFLQLHCHPACLVLVLNTQPAEEEYFINQLKIEGVEHLPRRVTNEITSNSRYEVYTQGGVIFATSRILVVDFLTDRIPSDLITGILVYRAHRIIESCQEAFILRLFRQKNKRGFIKAFTDNAVAFDTGFCHVERVMRNLFVRKLYLWPRFHVAVNSFLEQHKPEVVEIHVSMTPTMLAIQTAILDILNACLKELKCHNPSLEVEDLSLENAIGKPFDKTIRHYLDPLWHQLGAKTKSLVQDLKILRTLLQYLSQYDCVTFLNLLESLRATEKAFGQNSGWLFLDSSTSMFINARARVYHLPDAKMSKKEKISEKMEIKEGEETKKELVLESNPKWEALTEVLKEIEAENKESEALGGPGQVLICASDDRTCSQLRDYITLGAEAFLLRLYRKTFEKDSKAEEVWMKFRKEDSSKRIRKSHKRPKDPQNKERASTKERTLKKKKRKLTLTQMVGKPEELEEEGDVEEGYRREISSSPESCPEEIKHEEFDVNLSSDAAFGILKEPLTIIHPLLGCSDPYALTRVLHEVEPRYVVLYDAELTFVRQLEIYRASRPGKPLRVYFLIYGGSTEEQRYLTALRKEKEAFEKLIREKASMVVPEEREGRDETNLDLVRGTASADVSTDTRKAGGQEQNGTQQSIVVDMREFRSELPSLIHRRGIDIEPVTLEVGDYILTPEMCVERKSISDLIGSLNNGRLYSQCISMSRYYKRPVLLIEFDPSKPFSLTSRGALFQEISSNDISSKLTLLTLHFPRLRILWCPSPHATAELFEELKQSKPQPDAATALAITADSETLPESEKYNPGPQDFLLKMPGVNAKNCRSLMHHVKNIAELAALSQDELTSILGNAANAKQLYDFIHTSFAEVVSKGKGKK
